Results on 41 compounds are retold here after PubChem BioAssay AID493014 (National Center for Advancing Translational Sciences (NCATS), 2011).

The other results are listed elsewhere or left out. Shown are side measurements of this screen, not its main read-out; they come without a call. Compounds called inactive in the main read-out are mostly missing here. The note in brackets gives the kind of curve behind each potency; many fits are weak.

This experiment can be described thus: qHTS Assay to Find Inhibitors of Chronic Active B-Cell Receptor Signaling. The conditions noted are these: ABC-DLBCL IkBa-CBG/CBR reporter, luminescence ratio (green luciferase fused to IkBa over red control in TMD8 lymphoma cells), 4 h. The method in brief:
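TMD8 human ABC-DLBCL cells with doxycycline-inducible IκBα–green luciferase fusion and unfused red luciferase, in 0.5% FBS medium; compounds up to 46 uM, 4 h at 37C. Green/red luminescence ratio, filter-overlap corrected, fitted to concentration-response curves.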
In general terms: Quantitative high-throughput screening tests each substance at several concentrations.

The mark [1] stands for this setting: measured here: IkBa-CBG green luminescence.
Where [2] appears, read: measured here: CBR red luminescence, cell number.

By AC50 is commonly meant the concentration giving half of the maximal activity seen. Regarding `COc1ccc(Br)cc1/C=N/NC(=O)c1cc(OC)c(OC)c(OC)c1`, under setting [1], the AC50 is 18.4 µM [falling, single point].

Consider `O=c1oc(-c2ccc(F)cc2)nc2ccsc12`, for which the AC50 under setting [2] was 2.91 µM [falling, full curve].

Turning to `Cc1ccc(S(=O)(=O)CCC(=O)Nc2cccc(S(=O)(=O)N3CCCCCC3)c2)cc1`, the AC50 under setting [2] was 11.6 µM [falling, single point].

With `COc1cc(S(=O)(=O)n2ccnc2)ccc1Br`, under setting [2], the AC50 is 2 µM [rising, partial curve].

`COc1cccc(CN(C)CC(=O)Nc2cccc(C(F)(F)F)c2)c1OC`: under setting [2], the AC50 was 35.5 µM [rising, partial curve, poor fit].

Consider `O=Cc1s/c(=N\S(=O)(=O)c2ccccc2)n(CCCCl)c1Cl`, for which the AC50 under setting [2] is 35.5 µM [falling, single point] and the AC50 under setting [1] was 5.62 µM [falling, single point].

In the case of `COc1ccc(CCNc2nc3c(c(=O)n(C)c(=O)n3C)n2C)cc1OC`, the AC50 under setting [2] is 0.13 µM [falling, full curve].

For the compound `O=C(NC(=S)Nc1ccc(N2CCOCC2)cc1)c1cccc(Cl)c1`, under setting [2], the AC50 is 4.11 µM [rising, full curve, poor fit].

As to `CC(=O)Nc1sc(N/N=C\c2cccc(Cl)c2)nc1-c1cccs1`, the AC50 under setting [2] was 23.1 µM [falling, single point].

On to `CN(C)c1ccc(-c2cc([C@H]3[C@@H]4C=CCC[C@@]4(C)C(=O)N3Cc3ccccc3)ccc2F)cc1`, for which, under setting [2], the concentration at half-maximal activity (AC50) was 5.62 µM [rising, single point].

With `CCOCCOC(=O)c1[nH]c2c(c1C)C(=O)CC(c1ccccc1)C2` (centres undefined), the concentration at half-maximal activity (AC50) under setting [2] is 2.51 µM [rising, full curve, poor fit] and the AC50 under setting [1] is 2.82 µM [falling, full curve].

Turning to `CCCCN(CC)CCNC(=O)c1cc2c(-c3ccccc3F)nn(C)c2s1`, the AC50 under setting [2] was 35.5 µM [falling, single point].

With `CCC/C=N/NC(=O)c1ccc(F)cc1`, the AC50 under setting [2] is 10 µM [falling, partial curve].

As to `Cc1ccc(-n2nc(C)c3c(C)c(CCC(=O)NCCCOC(C)C)c(C)nc32)cc1`, under setting [2], the AC50 is 15.8 µM [rising, single point].

As for `Cc1ccc(NC(=O)c2cccs2)cc1NC(=O)c1ccc(F)cc1`, the AC50 under setting [2] is 35.5 µM [rising, partial curve, poor fit].

For the compound `CN(C)S(=O)(=O)c1ccc(C(=O)NCCSc2ccccc2)cc1`, the AC50 under setting [2] is 23.1 µM [rising, single point].

Turning to `CCOC(=O)c1cc(=O)n(Cc2ccccc2C)c2ccccc12`, the AC50 under setting [2] is 11.6 µM [falling, single point].

`Cn1cc(CN2CCCC(C(=O)Nc3cccc(-c4cc5ccccc5[nH]4)c3)C2)cn1` (centres undefined): the AC50 under setting [2] is 11.2 µM [falling, partial curve].

On to `CC1(C)COC(/C=C/c2ccc([N+](=O)[O-])cc2)=N1`, for which the AC50 under setting [2] is 16.4 µM [falling, partial curve].

For the compound `COc1c(C)cc(C(=O)C2CCCN(Cc3cnc(N4CCOCC4)s3)C2)cc1C` (centres undefined), the AC50 under setting [2] is 35.5 µM [falling, single point].

As to `CCOC(=O)Cn1c(CN(Cc2ccccc2)Cc2ccccc2)nc2c1c(=O)n(C)c(=O)n2C`, the AC50 under setting [2] was 14.1 µM [falling, single point].

With `Cc1nc(Br)c(Br)c(C)c1Br`, under setting [2], the AC50 was 1.41 µM [falling, partial curve, poor fit].

`Cc1ccc(C(=O)NNC(=O)c2cccs2)cc1`: under setting [2], the AC50 was 17.8 µM [falling, single point].

As for `CCOC(=O)NCc1ccc2c(c1)cc(C)n2C`, the AC50 under setting [2] was 4.47 µM [rising, full curve, poor fit].

On to `CC(=O)Nc1ccc(NC(=O)C(C)Oc2ccccc2C(=O)NCc2ccccc2)cc1` (centres undefined), for which the AC50 under setting [2] was 13 µM [rising, partial curve, poor fit].

Consider `O=C(Nc1ccc2c(c1)OCO2)c1ccc(Cl)s1`, for which, under setting [2], the AC50 is 23.1 µM [falling, single point].

For `C[C@]12CC[C@H]3C(=CCc4cc(O)ccc43)[C@@H]1CCC2=O`, the concentration at half-maximal activity (AC50) was 13 µM [rising, partial curve, poor fit] under setting [2] and 20.6 µM [falling, partial curve, poor fit] under setting [1].

`O=C(COC(=O)c1ccc(S(=O)(=O)C(F)F)cc1)Nc1ccccc1C(=O)NC1CC1`: under setting [2], the AC50 was 2.91 µM [rising, full curve, poor fit].

As to `Cc1noc(C)c1COc1ccc(C(=O)O)cc1`, under setting [2], the AC50 was 31.6 µM [rising, single point].

Regarding `COc1cc(CC(=O)O)c([N+](=O)[O-])cc1OC`, under setting [2], the AC50 was 7.08 µM [rising, partial curve, poor fit].

With `O=C(Nc1ccncc1)c1ccc2ncsc2c1`, the AC50 under setting [2] was 4.11 µM [falling, partial curve].

Regarding `COc1ccccc1N1CCN(S(=O)(=O)c2ccc(Cl)cc2)CC1`, the AC50 under setting [2] is 35.5 µM [falling, single point].

In the case of `CCCCCNC(=O)CSC1=N/C(=C\c2ccc(Cl)c(Cl)c2)C(=O)N1CC`, the AC50 under setting [2] is 32.6 µM [falling, partial curve, poor fit].

For the compound `Cc1c(Cl)cccc1NC(=S)NCC1COc2ccccc2O1` (centres undefined), under setting [2], the AC50 is 12.6 µM [falling, single point].

Take `O=C(CNC(=O)c1ccc2c(c1)S(=O)(=O)N=C1CCCCCN12)Nc1ccc(F)c(F)c1`: the AC50 under setting [2] was 0.259 µM [rising, full curve, poor fit].

Consider `O=C(O)c1ccc(N/N=C/c2ccc(-c3ccc(Br)cc3)o2)cc1`, for which, under setting [2], the AC50 is 0.0891 µM [falling, full curve].

As for `O=C(COC(=O)C1CCN(/C=C/C(=O)C(F)(F)F)CC1)Nc1ccccc1`, under setting [2], the AC50 was 25.9 µM [rising, single point].

In the case of `COc1ccc(S(=O)(=O)N2CCCC(C(=O)NCC3CCCO3)C2)cc1Cl` (centres undefined), under setting [2], the AC50 was 10 µM [falling, partial curve, poor fit].

For `COc1ccccc1-n1cn[nH]c1=S`, the AC50 under setting [2] is 8.91 µM [falling, partial curve].

`CN(C)N=Nc1nc2c(c(=O)n(C)c(=O)n2C)n1CC1CO1` (centres undefined): the AC50 under setting [2] was 14.1 µM [rising, single point].

For the compound `O=c1c(Cl)c(Cl)cnn1Cc1ccccc1Cl`, the AC50 under setting [2] is 18.4 µM [falling, partial curve, poor fit].
